This is one part of the list.
Compound: Cc1cc(ccc1-c1ccccc1)C(=O)N1CCCN(CC1)C(=O)CCl [compound 10]
Assay: probe-labelled cysteine peptide fold change vs DMSO (competition) (log2 fold change); higher = less target engagement (more negative = stronger competition)
Settings: THP-1, incubation time: 4 h
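Further: competitive profiling in live THP-1 cells: cysteine peptides tagged with an iodoacetamide desthiobiotin (IA-DTB) probe, intensity after compound treatment relative to DMSO-treated cells.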

Protein sequences, listed by entry. Tags and fused reporters are not part of them. Lines headed by an entry give the natural chain unless they say otherwise; changes in a name come on top.
UniProt Q96K12: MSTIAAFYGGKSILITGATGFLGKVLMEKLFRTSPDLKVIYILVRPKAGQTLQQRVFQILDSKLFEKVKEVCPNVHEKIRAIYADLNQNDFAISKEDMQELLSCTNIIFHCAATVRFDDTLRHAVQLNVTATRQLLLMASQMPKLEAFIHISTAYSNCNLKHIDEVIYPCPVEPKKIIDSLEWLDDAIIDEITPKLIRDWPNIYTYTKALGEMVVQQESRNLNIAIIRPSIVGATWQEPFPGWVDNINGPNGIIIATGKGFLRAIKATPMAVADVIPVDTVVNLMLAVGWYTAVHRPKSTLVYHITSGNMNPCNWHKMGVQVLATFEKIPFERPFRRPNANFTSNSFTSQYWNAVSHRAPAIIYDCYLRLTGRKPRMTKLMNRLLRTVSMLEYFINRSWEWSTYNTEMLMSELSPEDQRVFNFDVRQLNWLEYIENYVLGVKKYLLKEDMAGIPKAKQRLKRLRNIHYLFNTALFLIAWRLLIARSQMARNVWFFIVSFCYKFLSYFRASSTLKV
UniProt Q9H469: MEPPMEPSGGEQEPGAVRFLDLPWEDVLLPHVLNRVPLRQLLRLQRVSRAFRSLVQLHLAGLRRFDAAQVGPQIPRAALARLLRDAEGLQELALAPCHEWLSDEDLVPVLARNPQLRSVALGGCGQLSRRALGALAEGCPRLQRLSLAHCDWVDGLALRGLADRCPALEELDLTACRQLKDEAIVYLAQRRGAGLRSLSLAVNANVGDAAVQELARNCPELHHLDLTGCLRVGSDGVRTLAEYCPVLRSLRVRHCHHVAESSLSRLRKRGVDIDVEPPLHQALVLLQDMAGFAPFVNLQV
UniProt Q9UK61: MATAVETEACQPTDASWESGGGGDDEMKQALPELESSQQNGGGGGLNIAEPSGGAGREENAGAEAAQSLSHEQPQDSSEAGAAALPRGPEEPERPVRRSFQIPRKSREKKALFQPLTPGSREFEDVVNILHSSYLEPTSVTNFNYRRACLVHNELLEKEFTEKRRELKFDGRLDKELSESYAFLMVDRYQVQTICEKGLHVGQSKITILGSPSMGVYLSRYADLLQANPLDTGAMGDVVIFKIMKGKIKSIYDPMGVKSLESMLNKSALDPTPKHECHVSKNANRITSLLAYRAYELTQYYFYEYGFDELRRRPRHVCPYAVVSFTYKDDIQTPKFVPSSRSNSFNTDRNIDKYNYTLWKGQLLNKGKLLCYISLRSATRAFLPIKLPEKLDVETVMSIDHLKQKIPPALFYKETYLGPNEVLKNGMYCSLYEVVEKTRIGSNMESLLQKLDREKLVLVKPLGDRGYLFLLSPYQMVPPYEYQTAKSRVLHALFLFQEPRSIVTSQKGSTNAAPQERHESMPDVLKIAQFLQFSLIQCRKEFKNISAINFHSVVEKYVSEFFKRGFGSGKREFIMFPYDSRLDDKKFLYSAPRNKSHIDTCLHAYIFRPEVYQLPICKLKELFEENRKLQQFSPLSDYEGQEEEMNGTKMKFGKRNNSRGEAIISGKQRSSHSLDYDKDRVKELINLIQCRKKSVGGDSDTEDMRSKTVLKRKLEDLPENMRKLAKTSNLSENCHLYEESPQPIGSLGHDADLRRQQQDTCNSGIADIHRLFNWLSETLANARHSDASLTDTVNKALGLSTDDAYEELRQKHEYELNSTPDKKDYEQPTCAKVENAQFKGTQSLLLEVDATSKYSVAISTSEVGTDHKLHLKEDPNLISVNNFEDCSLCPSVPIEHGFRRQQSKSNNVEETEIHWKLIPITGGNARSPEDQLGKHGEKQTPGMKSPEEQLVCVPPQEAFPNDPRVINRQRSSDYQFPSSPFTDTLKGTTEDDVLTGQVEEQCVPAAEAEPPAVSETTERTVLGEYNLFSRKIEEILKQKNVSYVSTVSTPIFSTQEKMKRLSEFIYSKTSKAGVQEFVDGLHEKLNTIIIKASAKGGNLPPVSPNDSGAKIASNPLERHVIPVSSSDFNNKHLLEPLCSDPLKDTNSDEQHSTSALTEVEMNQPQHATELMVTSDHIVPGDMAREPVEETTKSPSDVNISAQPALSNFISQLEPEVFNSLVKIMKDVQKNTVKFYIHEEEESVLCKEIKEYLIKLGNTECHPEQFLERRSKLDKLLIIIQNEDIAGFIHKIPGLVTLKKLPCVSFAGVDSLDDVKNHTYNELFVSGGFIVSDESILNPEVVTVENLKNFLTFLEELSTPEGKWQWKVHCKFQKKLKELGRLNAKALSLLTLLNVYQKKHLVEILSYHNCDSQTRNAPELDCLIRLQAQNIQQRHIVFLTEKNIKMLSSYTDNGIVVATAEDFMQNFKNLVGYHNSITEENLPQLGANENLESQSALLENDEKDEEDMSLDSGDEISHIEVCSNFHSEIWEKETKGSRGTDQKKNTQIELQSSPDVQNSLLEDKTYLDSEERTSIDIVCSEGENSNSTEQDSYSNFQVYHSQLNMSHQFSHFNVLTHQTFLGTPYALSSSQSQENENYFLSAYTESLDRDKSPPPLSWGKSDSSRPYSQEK
UniProt O15287: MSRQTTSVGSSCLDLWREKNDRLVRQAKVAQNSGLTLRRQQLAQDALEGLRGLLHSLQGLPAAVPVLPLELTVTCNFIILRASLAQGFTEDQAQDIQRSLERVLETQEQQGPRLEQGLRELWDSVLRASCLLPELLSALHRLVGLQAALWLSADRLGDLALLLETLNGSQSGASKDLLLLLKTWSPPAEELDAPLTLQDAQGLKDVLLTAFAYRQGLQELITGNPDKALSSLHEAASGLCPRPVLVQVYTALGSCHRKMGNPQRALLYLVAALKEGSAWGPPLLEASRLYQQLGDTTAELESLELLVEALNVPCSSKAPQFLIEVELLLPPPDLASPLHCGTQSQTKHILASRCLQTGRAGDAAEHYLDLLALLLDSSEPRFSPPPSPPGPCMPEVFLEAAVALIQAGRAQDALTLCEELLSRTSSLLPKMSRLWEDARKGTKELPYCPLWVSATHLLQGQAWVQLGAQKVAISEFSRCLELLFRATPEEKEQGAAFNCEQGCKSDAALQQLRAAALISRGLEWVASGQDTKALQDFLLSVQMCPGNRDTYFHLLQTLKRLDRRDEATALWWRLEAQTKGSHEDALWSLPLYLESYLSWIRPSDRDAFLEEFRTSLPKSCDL
UniProt Q9Y324: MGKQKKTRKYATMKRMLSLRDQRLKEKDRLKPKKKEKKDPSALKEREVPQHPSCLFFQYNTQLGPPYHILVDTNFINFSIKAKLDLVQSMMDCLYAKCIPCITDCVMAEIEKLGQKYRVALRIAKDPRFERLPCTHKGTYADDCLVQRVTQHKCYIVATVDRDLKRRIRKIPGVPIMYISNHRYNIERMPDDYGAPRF
UniProt Q86UX7, whole entry, looked up: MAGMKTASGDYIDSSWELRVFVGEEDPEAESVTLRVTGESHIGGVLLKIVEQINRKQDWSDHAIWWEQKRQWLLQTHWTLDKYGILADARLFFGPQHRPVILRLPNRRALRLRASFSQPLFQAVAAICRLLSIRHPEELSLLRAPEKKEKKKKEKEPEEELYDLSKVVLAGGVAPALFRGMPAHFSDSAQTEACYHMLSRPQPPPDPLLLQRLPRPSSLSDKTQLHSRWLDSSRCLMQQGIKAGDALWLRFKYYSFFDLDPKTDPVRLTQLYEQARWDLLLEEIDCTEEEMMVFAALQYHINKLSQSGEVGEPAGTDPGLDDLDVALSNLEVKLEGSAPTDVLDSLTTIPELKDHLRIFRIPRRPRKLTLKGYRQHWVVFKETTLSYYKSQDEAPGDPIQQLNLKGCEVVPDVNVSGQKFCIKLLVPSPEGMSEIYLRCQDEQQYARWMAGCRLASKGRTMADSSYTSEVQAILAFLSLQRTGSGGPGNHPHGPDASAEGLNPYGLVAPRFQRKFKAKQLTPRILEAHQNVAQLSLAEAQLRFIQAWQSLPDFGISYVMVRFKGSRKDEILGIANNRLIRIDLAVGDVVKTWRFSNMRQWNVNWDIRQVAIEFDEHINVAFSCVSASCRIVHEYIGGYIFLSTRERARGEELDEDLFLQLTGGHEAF
UniProt P49327, whole entry, looked up: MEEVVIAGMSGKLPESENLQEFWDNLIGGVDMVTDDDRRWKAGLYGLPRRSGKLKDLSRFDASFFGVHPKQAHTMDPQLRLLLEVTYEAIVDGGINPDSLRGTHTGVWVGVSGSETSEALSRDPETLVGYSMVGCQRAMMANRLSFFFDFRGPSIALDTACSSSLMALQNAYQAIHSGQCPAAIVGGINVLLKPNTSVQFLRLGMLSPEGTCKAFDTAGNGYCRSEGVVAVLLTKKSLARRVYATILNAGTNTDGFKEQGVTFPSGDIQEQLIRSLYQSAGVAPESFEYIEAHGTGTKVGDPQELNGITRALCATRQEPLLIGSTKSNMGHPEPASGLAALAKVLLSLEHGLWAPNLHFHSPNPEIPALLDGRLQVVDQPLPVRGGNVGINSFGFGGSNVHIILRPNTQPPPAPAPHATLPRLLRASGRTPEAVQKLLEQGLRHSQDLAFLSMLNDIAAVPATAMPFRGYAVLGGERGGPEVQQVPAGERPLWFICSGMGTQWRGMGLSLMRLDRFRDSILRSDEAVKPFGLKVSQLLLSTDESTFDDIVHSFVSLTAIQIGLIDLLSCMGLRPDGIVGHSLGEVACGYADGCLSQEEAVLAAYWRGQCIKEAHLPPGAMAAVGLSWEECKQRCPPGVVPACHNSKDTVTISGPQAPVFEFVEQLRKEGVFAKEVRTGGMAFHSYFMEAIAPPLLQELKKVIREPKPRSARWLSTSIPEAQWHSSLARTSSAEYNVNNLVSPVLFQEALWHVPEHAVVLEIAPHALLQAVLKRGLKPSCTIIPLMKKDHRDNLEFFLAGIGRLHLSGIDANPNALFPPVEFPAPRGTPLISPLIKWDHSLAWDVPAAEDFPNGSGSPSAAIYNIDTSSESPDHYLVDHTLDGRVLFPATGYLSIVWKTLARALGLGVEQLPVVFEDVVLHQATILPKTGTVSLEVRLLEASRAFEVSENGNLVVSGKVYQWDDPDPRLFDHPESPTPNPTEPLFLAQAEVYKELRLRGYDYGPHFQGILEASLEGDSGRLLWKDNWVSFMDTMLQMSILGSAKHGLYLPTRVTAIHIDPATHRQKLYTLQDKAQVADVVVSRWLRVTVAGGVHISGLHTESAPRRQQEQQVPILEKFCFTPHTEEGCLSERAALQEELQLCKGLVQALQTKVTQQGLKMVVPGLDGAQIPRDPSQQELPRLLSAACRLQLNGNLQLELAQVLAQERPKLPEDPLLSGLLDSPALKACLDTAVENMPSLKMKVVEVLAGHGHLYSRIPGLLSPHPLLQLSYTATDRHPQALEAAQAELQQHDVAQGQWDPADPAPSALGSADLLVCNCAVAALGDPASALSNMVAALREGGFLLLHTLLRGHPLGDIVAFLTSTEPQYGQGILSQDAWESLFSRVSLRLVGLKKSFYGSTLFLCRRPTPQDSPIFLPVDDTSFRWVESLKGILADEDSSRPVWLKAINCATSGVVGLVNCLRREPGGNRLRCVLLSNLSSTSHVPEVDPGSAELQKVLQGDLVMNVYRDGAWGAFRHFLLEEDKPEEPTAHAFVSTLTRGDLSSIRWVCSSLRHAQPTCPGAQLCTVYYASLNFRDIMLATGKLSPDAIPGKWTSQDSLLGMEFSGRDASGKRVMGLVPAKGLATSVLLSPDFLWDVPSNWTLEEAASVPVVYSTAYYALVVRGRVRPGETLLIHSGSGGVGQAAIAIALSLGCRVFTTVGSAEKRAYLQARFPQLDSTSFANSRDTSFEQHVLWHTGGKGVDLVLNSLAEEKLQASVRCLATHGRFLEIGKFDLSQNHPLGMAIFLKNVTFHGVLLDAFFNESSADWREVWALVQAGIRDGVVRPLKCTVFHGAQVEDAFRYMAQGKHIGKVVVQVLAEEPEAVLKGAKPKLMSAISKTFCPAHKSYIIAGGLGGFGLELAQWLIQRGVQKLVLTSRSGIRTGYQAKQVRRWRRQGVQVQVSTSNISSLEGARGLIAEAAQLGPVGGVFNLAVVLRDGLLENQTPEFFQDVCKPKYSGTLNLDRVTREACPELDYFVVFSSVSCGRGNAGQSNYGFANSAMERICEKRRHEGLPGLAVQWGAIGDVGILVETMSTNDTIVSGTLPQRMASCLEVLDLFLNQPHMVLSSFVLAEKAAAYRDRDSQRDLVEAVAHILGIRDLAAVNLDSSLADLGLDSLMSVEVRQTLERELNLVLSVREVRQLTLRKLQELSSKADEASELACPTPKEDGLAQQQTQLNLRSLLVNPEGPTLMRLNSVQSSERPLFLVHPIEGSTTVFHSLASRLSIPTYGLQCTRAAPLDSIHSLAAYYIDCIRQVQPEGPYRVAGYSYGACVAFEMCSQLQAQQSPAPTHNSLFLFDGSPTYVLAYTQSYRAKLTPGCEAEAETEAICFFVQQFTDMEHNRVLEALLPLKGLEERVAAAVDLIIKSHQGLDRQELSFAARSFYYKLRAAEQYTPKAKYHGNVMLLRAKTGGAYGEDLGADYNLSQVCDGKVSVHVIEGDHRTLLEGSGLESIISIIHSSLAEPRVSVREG

Target | probe-labelled cysteine peptide fold change (10 µM) | probe-labelled cysteine peptide fold change (50 µM)
FAM49B_Q9NUQ9_223_NLPIENTTDCLSTMASVCR (UniProt Q9NUQ9) | 0.067 | 0.112
FAR2_Q96K12_158_LEAFIHISTAYSNCNLK (UniProt Q96K12) | 0.0523 | 0.18
FBXO9_Q9UK97_220_SLEQLSLVCR (UniProt Q9UK97) | 0.18 | 0.28
FBH1_Q8NFZ0_857_CHIEDLDFAEYILGTVHK (UniProt Q8NFZ0) | -0.159 | -0.0737
FAM208B_Q5VWN6_1432_LHGTQCEK (UniProt Q5VWN6) | -0.167 | -0.21
FAR2_Q96K12_313_STLVYHITSGNMNPCNWHK (UniProt Q96K12) | -0.126 | 0.116
FBXL20_Q96IG2_179_ALSEGCPLLEQLNISWCDQVTK (UniProt Q96IG2) | -0.152 | -0.432
FBXW11_Q9UKB1_484_APASTLCLR (UniProt Q9UKB1) | -0.00112 | 0.297
FBXL15_Q9H469_255_HCHHVAESSLSR (UniProt Q9H469) | 0.0878 | -0.193
FAM208A_Q9UK61_538_IAQFLQFSLIQCR (UniProt Q9UK61) | -0.0583 | 0.348
FCHSD1_Q86WN1_88_CLLDATVAGGQTR (UniProt Q86WN1) | -0.14 | -0.354
FBXL6_Q8N531_476_DLEQALAAFLSTPGGSHPALCSLNLR (UniProt Q8N531) | 0.143 | -0.11
FBXL17_Q9UF56_342_CLSASLVCK (UniProt Q9UF56) | 0.00792 | -0.194
FANCG_O15287_503_EQGAAFNCEQGCK (UniProt O15287) | -0.111 | -0.635
FCF1_Q9Y324_105_CIPCITDCVMAEIEK (UniProt Q9Y324) | -0.0921 | -0.133
FHL1_Q13642-1_273+276_FVFHQEQVYCPDCAK (UniProt Q13642) | -0.106 | -0.119
FDPS_P14324_183_RGQICWYQKPGVGLDAINDANLLEACIYR (UniProt P14324) | -0.254 | -0.375
FASTKD1_Q53R41_46_CTDEEQMFGFIER (UniProt Q53R41) | -0.21 | -0.551
FANCI_Q9NVI1_908_SISLLCLEGLQK (UniProt Q9NVI1) | -0.0229 | 0.0565
FANCI_Q9NVI1_1085_TAAPTVCLLVLSQAEK (UniProt Q9NVI1) | 0.0136 | 0.198

Look-ups from the entries so far.
FANCG_O15287_503_EQGAAFNCEQGCK (UniProt O15287) – probe-labelled cysteine peptide fold change (10 µM): -0.111
FBXL15_Q9H469_255_HCHHVAESSLSR (UniProt Q9H469) – probe-labelled cysteine peptide fold change (50 µM): -0.193

(further entries)

Target | probe-labelled cysteine peptide fold change (10 µM) | probe-labelled cysteine peptide fold change (50 µM)
FBXO30_Q8TB52_570_FCPSIQGAK (UniProt Q8TB52) | 0.133 | -0.0964
FDX1_P10109_155_LGCQICLTK (UniProt P10109) | -0.171 | -0.586
FBN2_P35556_941_CELDTACPR (UniProt P35556) | 0.316 | 0.197
FARP2_O94887_155_LTCADTTAALLTSHLLQSEIGDYDETLDREHLK (UniProt O94887) | 0.00853 | -0.316
FDFT1_P37268_6_CLGHPEEFYNLVR (UniProt P37268) | -0.238 | -0.749
FERMT3_Q86UX7_407_GCEVVPDVNVSGQK (UniProt Q86UX7) | 0.0295 | -0.04
FBLN1_P23142_556_CLAFECPENYRR (UniProt P23142) | -0.358 | -0.339
FAM136A_Q96C01_114_CVDDHMHLIPTMTK (UniProt Q96C01) | -0.00834 | 0.0158
FASN_P49327_2010_EACPELDYFVVFSSVSCGR (UniProt P49327) | -0.109 | 0.372
FBXO4_Q9UKT5_283_VCEVVDGFIYVANAEAHK (UniProt Q9UKT5) | 0.241 | 0.367
FBLN1_P23142_109_CCHCCLLGR (UniProt P23142) | -0.0833 | -0.383
FERMT3_Q86UX7_439_CQDEQQYAR (UniProt Q86UX7) | 0.208 | 0.187
FASN_P49327_2273_LSIPTYGLQCTR (UniProt P49327) | 0.0467 | 0.0413
FASN_P49327_634_CPPGVVPACHNSK (UniProt P49327) | 0.258 | 0.0678
FAM208A_Q9UK61_318_HVCPYAVVSFTYK (UniProt Q9UK61) | -0.201 | -0.698
FAM136A_Q96C01_110_QQLDSCVTK (UniProt Q96C01) | -0.0114 | -0.217
FBLN1_P23142_494_RGYQLSDVDGVTCEDIDECALPTGGHICSYR (UniProt P23142) | -0.208 | -0.45
FBXL18_Q96ME1_613_LEQPYFSANAQFFQALSQCPSLQR (UniProt Q96ME1) | -0.134 | 0.227
FAM234A_Q9H0X4_285_TGAHYILFPCASSLCGCSVK (UniProt Q9H0X4) | 0.0209 | 0.184

From the supplement of paper PMC12067093, “Discovery and optimisation of a covalent ligand for TRIM25 and its application to targeted protein ubiquitination” (Chemical Science, 2025)
